Paper PMC11167181

Target: T1, peroxiredoxin 5 (mouse (endogenous in C2C12)) (UniProt P99029)
T1 sequence: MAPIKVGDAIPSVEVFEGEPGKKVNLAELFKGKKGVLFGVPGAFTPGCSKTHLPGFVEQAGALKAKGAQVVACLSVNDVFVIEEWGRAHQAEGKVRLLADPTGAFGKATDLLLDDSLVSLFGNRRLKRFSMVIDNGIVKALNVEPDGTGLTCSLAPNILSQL
Experiment: co-IP; C2C12 myotube lysates mixed with the indicated antibody and protein A/G-agarose beads, 4 h at 4°C; PRDX5 precipitated, Nrf2 and UNG1 detected by Western blotting; cells treated with TBHP with or without myricanol (MY)

binding: binds
Substance: UNG1 (from UniProt P97931-2)

No constants are given. Whether binding was seen depends on the method and setting. Binding seen in cells or lysates may run through a third protein. Binding can be weak; no strength is given.
